# Reference: patent WO2018235964A1
# Protein sequences, listed by entry. Tags and fused reporters are not part of them. Residues count along the entry.
# UniProt P01137, residues 279-390: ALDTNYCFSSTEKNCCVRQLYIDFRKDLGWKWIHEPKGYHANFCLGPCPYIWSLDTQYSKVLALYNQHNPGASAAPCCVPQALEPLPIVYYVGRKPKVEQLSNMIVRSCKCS
# Residue numbers refer to the chain shown, from its start. Results are given in words; binding and its absence hold for the method and conditions named. Some binding calls cover weakened binding; strength is not graded here.
# B1: mouse anti-human active TGF-β1 antibody clone 4D10 (antibody, IgG1, V domains shown)
# VH: EVKLQQSGTVLARPGTSVKMSCKASGYTFSNYWMHWVKQRPGQGLEWIGAIYPGNSDTRFNQKFKGKAKLTAVTSASTAYMDLSSLTDEDSAVYYCTGYSNYEAGAMDYWGQGTSVTVSS
# VL: DIVMTQSPSSRAVSSGEKVTMSCKSSQSLLNSRTRKNYLAWYQQKPGQSLKLLIYWASTRESGVPDRFTGSGSGTDFTLTISGVQAEDLAVYYCQQSYHLPTFGGGTKLEIKR
# B2: mouse anti-human active TGF-β1 antibody clone 2H4 (antibody, IgG1, V domains shown)
# VH: B1 VH
# VL: B1 VL with R11L, L50P
# Assays:
# TGF-β1 protein (human) [1] = molecular target: TGF-β1 protein (human) (UniProt P01137); assay: western blot on lysate of TGF-β1 overexpressing cells or tissue, 5x diluted hybridoma supernatant
# TGF-β1 protein (human) [2] = molecular target: TGF-β1 protein (human) (UniProt P01137); assay: indirect ELISA, hybridoma supernatant on TGF-β1 protein-coated plates
Binder,binding (TGF-β1 protein (human) [1]),binding (TGF-β1 protein (human) [2])
B1,binds,binds
B2,binds,binds
